No constants are given. Whether binding was seen depends on the method and setting. Binding seen in cells or lysates may run through a third protein. These calls come from enrichment with a bait or labelling near it, and not all partners need be listed. Sequences can lack the tags named with a protein.
Target: T1, GFP-OsATG8a (rice (Oryza sativa)) (UniProt Q69RC4)
T1 sequence: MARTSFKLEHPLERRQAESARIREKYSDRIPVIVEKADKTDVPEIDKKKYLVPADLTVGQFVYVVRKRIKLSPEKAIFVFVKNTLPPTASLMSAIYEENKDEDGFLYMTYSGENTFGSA
Test: affinity purification with mass spectrometry; GFP-Trap A beads with extracts of transgenic rice seedlings of the three GFP-OsATG8a lines, GFP control lines subtracted; seedlings in Hoagland's solution (mock) or with 150 mM NaCl for 1 h; 50 mM Tris-HCl pH 7.5, 150 mM NaCl, 20% glycerol, 1 mM MgCl2, NP-40; 4°C, 2-3 h

By UniProt entry, the sequences of proteins in these tests, tags left out. Where a name states a change or a piece, a line headed by the entry shows the natural chain unless it says otherwise.
UniProt Q9ST27: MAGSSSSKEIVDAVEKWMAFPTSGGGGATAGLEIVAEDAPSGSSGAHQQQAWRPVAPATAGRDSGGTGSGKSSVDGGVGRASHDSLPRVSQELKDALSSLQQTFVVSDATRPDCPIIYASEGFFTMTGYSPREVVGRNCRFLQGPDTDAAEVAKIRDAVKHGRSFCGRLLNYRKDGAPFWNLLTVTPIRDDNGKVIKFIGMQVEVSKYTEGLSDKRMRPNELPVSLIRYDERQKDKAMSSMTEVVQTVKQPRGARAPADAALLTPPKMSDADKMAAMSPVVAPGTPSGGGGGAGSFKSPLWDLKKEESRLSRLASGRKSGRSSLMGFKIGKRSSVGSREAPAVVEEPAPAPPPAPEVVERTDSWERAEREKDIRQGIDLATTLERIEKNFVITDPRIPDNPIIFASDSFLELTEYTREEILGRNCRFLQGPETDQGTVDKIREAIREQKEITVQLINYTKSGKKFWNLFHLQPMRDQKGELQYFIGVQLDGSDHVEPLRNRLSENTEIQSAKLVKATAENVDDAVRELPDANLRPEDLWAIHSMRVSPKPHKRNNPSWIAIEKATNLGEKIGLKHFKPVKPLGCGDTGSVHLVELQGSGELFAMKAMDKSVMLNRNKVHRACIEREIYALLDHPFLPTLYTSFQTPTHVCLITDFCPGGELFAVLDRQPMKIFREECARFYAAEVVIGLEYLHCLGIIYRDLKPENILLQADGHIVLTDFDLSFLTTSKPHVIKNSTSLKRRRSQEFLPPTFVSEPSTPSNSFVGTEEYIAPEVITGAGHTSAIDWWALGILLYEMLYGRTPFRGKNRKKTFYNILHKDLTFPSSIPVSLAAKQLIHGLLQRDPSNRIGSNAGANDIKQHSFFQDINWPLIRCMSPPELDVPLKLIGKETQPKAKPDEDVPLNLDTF
UniProt Q0JBY9: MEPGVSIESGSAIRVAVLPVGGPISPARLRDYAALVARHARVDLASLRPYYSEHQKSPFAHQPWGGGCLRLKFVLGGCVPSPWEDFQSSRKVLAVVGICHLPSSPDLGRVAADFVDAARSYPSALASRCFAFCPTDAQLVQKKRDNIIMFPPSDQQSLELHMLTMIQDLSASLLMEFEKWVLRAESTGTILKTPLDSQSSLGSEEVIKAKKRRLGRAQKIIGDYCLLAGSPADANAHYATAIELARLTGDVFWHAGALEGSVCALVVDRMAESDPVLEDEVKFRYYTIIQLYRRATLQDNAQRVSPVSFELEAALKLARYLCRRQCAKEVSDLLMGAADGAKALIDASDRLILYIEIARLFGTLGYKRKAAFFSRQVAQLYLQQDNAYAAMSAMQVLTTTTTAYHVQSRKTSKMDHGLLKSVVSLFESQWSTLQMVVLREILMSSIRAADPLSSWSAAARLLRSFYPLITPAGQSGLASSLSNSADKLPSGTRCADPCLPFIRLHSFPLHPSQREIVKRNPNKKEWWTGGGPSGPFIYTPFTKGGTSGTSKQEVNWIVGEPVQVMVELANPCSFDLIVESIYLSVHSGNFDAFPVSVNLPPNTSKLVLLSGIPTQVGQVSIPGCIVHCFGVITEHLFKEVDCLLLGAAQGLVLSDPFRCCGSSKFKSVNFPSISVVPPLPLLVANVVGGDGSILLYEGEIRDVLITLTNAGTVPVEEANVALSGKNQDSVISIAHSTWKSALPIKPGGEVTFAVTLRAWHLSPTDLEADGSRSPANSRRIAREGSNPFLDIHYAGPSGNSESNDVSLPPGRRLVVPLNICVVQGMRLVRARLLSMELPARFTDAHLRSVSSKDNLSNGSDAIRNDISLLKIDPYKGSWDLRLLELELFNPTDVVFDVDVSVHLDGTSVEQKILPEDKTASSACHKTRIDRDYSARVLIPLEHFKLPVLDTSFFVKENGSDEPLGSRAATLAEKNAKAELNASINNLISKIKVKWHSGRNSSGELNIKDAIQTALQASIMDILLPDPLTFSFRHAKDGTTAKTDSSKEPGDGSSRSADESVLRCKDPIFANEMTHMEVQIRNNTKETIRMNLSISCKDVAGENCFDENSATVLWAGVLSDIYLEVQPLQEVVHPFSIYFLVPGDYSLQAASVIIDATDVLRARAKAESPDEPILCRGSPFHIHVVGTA

binding | Substance
binds | sodium transporter HKT1 (rice (endogenous in rice seedlings))
binds | ATB’GAMMA (rice (endogenous in rice seedlings))
binds | PHOT2 (from UniProt Q9ST27)
binds | Guanosine nucleotide diphosphate dissociation inhibitor GDI1 (rice (endogenous in rice seedlings))
binds | SH3P2 (rice (endogenous in rice seedlings))
binds | SAD2 (rice (endogenous in rice seedlings))
binds | EXO70A1 (rice (endogenous in rice seedlings))
binds | SEC24 (rice (endogenous in rice seedlings))
binds | Rab2 (rice (endogenous in rice seedlings))
binds | TOPP4 (rice (endogenous in rice seedlings))
binds | SEC13 (rice (endogenous in rice seedlings))
binds | catalytic subunit of the plant AMPK, SnRK1/KIN10 (rice (endogenous in rice seedlings))
binds | LECRK-IV.1 (rice (endogenous in rice seedlings))
binds | Casein kinase 1 (rice (endogenous in rice seedlings))
binds | regulatory subunit of the plant AMPK, SnRK1 (rice (endogenous in rice seedlings))
binds | P-ATPase AHA6 (rice (endogenous in rice seedlings))
binds | PUP1 (rice (endogenous in rice seedlings))
binds | RPM1/RPS3 (rice (endogenous in rice seedlings))
binds | TRS120 (from UniProt Q0JBY9)
binds | FIERY1/HOS2 (rice (endogenous in rice seedlings))
binds | ABC1K10A (rice (endogenous in rice seedlings))
binds | UBP1B (rice (endogenous in rice seedlings))
binds | Vacuolar H+-Pyrophosphatase AVP1 (rice (endogenous in rice seedlings))
binds | CLASP (rice (endogenous in rice seedlings))
binds | ADH1 (rice (endogenous in rice seedlings))
binds | PUP3 (rice (endogenous in rice seedlings))

From article PMC9083259
